Some entries share one result that the patent states for a list of compounds.
What follows are compounds tested against T1, c-KIT kinase enzyme (Homo sapiens, UniProt P10721) (assay: cKIT Homogeneous Time Resolved Fluorescent (HTRF) kinase assay). Conditions: inhibition of the c-KIT kinase enzyme.
T1 construct: cKIT (6.25 μM) (catalytic domain, N-terminal GST tagged, unphosphorylated)
Format: biochemical
Procedure: cKIT-Homogeneous Time Resolved Fluorescent (HTRF) Kinase Assay:
The purpose of this assay is to measure the inhibition of cKIT enzyme activity (autophosphorylation and phosphorylation of substrate) by small molecule test compounds. The cKIT HTRF assay begins with cKIT-catalyzed phosphorylation of biotinylated peptide Her-2 (N-GGMEDIYFEFMGGKKK-C) (SEQ ID 001) in the presence of ATP. The cKIT enzyme reaction is comprised of 1 μL of compound in 100% DMSO, 15 μL of 2× substrate mix (50 μM ATP and 2 μM biotinylated Her-2) and 15 μL of 2× cKIT (6.25 μM) (catalytic domain, N-terminal GST tagged, unphosphorylated) in 4 mM DTT all diluted in enzyme buffer (25 mM HEPES pH 7.5, 12.5 mM NaCl, 50 mM MgCl, 0.05% BSA). The reaction incubates for 90 min at RT. 160 Microliters of detection mixture containing 0.47 μg/mL steptavidin allophycocyanin and 29.7 pM europylatedanti-phosphotyrosine Ab (PT66, Perkin Elmer) in HTRF buffer (100 mM Hepes pH 7.5, 100 mM NaCl, 0.1% BSA, 0.05% Tween 20) is then added to stop the reaction, by diluting out the enzyme as well as to enable quantitation of phosphorylated Her-2. After 3 h at RT, the detection reaction is read in a Packard Discovery™ (model BD1000) plate reader. The wells are excited with coherent […] light and the ratio of delayed ([…] post excitation) emissions at […] (native europium fluorescence) and 665 nm (europium fluorescence transferred to allophycocyanin—an index of substrate phosphorylation) is determined. The proportion of substrate phosphorylated in the kinase reaction in the presence of compound compared with that phosphorylated in the presence of DMSO vehicle alone (HI control) is calculated using the formula:
% control (POC)=(cpd−average LO)/(average HI−average LO)*100. Data (consisting of POC and inhibitor concentration in μM) is fitted to a 4-parameter equation (y=A+((B−A)/(1+((x/C)^D))), where A is the minimum y (POC) value, B is the maximum y (POC), C is the x (compound concentration) at the point of inflection and D is the slope factor) using a Levenburg-Marquardt non-linear regression algorithm.

Sequences of proteins named here, by UniProt entry; tags and fusion partners are left off. Residues count along the entry.
UniProt P10721, 589-937 limits assumed: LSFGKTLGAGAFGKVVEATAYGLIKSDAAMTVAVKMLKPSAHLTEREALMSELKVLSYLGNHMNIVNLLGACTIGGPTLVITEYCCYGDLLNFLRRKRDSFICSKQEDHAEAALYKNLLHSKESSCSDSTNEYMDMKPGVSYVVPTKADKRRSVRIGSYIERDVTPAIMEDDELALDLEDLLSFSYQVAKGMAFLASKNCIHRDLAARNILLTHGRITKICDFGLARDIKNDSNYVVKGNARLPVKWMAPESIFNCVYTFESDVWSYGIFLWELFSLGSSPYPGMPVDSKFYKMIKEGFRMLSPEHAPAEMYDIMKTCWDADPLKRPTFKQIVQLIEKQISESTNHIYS

IC50, ≤ 2 µM:
Cc1ccn(-c2cccc(OC(F)(F)F)c2)c(=O)c1C#Cc1cnc(N)nc1 [Example 10, 3-((2-amino-5-pyrimidinyl)ethynyl)-4-methyl-1-(3-((trifluoromethyl)oxy)phenyl)-2(1H)-pyridinone]
Cc1ccn(-c2ccc3c(c2)CCO3)c(=O)c1C#Cc1cnc(N)nc1 [Example 9, 3-((2-amino-5-pyrimidinyl)ethynyl)-1-(2,3-dihydro-1-benzofuran-5-yl)-4-methyl-2(1H)-pyridinone]
Cc1ccn(-c2cccc(C(F)(F)F)c2)c(=O)c1C#Cc1cnc(N)nc1 [Example 4, 3-((2-amino-5-pyrimidinyl)ethynyl)-4-methyl-1-(3-(trifluoromethyl)phenyl)-2(1H)-pyridinone]
Cc1ccn(-c2ccc3c(c2)NCC3(C)C)c(=O)c1C#Cc1cnc(N)nc1 [Example 6, 3-((2-amino-5-pyrimidinyl)ethynyl)-1-(3,3-dimethyl-2,3-dihydro-1H-indol-6-yl)-4-methyl-2(1H)-pyridinone]
Cc1ccn(-c2cccc(C(F)(F)F)c2)c(=O)c1C#Cc1cccnc1 [Example 11, 4-methyl-3-(3-pyridinylethynyl)-1-(3-(trifluoromethyl)phenyl)-2(1H)-pyridinone]
CC(=O)N1CC(C)(C)c2ccc(-n3ccc(C)c(C#Cc4cnc(N)nc4)c3=O)cc21 [Example 8, 1-(1-acetyl-3,3-dimethyl-2,3-dihydro-1H-indol-6-yl)-3-((2-amino-5-pyrimidinyl)ethynyl)-4-methyl-2(1H)-pyridinone]
Cc1ccc(-n2ccc(C)c(C#Cc3cnc(N)nc3)c2=O)cc1C [Example 7, 3-((2-amino-5-pyrimidinyl)ethynyl)-1-(3,4-dimethylphenyl)-4-methyl-2(1H)-pyridinone]

Source: patent US7893061B2, “Alkyne-substituted pyridone compounds and methods of use” (Amgen Inc., priority 2006, dated 2011)
